The supplement of paper PMC4604168 (melanoma cell lines)
The other results are listed elsewhere or left out. Single values are uncertain, as repeats are few or missing.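 Cells were imaged in 1,536-well plates, and nuclei stained with an antibody against cleaved PARP were counted against all DNA-stained nuclei to give the apoptosis fraction. Screening doses were chosen to leave most cells alive, and resting and induced cleaved-PARP levels differ strongly between cell lines.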

How the values were obtained:
Experiment in all cases: cleaved PARP positive nuclei fraction relative to DMSO control; melanoma cells; higher = more apoptosis
Details in all cases: library dose: low library concentration; 72 h
MeWo = test system: MeWo
RPMI7951 = test system: RPMI7951
RVH-421 = test system: RVH-421
SkMel28 = test system: SkMel28
SkMel30 = test system: SkMel30
SkMel5 = test system: SkMel5
UACC257 = test system: UACC257
UACC62 = test system: UACC62
WM115 = test system: WM115
WM1716 = test system: WM1716
WM1745 = test system: WM1745
WM3526 = test system: WM3526
WM3619 = test system: WM3619
WM451Lu = test system: WM451Lu

## Cc1nc(Nc2ncc(C(=O)Nc3c(C)cccc3Cl)s2)cc(N2CCN(CCO)CC2)n1 [dasatanib] + O=C(Oc1ccc([N+](=O)[O-])cc1)N1CCC(C(O)(c2ccc3c(c2)OCO3)c2ccc3c(c2)OCO3)CC1 [JZL184] (first compound 0.004 µM, partner dose 1 µM)
MeWo
  cleaved PARP positive nuclei fraction: 61.2%
RPMI7951
  cleaved PARP positive nuclei fraction: 108%
RVH-421
  cleaved PARP positive nuclei fraction: 102%
SkMel28
  cleaved PARP positive nuclei fraction: 121%
SkMel30
  cleaved PARP positive nuclei fraction: 58%
SkMel5
  cleaved PARP positive nuclei fraction: 65.9%
UACC257
  cleaved PARP positive nuclei fraction: 165%
UACC62
  cleaved PARP positive nuclei fraction: 190%
WM115
  cleaved PARP positive nuclei fraction: 92.2%
WM1716
  cleaved PARP positive nuclei fraction: 179%
WM1745
  cleaved PARP positive nuclei fraction: 160%
WM3526
  cleaved PARP positive nuclei fraction: 86%
WM3619
  cleaved PARP positive nuclei fraction: 99.7%
WM451Lu
  cleaved PARP positive nuclei fraction: 59.5%

## N.N.[Cl][Pt][Cl] [cisplatin] + NCC(=O)Nc1ccc(-n2nc(C(F)(F)F)cc2-c2ccc3c(ccc4ccccc43)c2)cc1 [OSU03012] (first compound 1.6 µM, partner dose 1 µM)
MeWo
  cleaved PARP positive nuclei fraction: 42.6%
RPMI7951
  cleaved PARP positive nuclei fraction: 67.7%
RVH-421
  cleaved PARP positive nuclei fraction: 73.7%
SkMel28
  cleaved PARP positive nuclei fraction: 183%
SkMel30
  cleaved PARP positive nuclei fraction: 49.8%
SkMel5
  cleaved PARP positive nuclei fraction: 72.8%
UACC257
  cleaved PARP positive nuclei fraction: 73.6%
UACC62
  cleaved PARP positive nuclei fraction: 111%
WM115
  cleaved PARP positive nuclei fraction: 32.3%
WM1716
  cleaved PARP positive nuclei fraction: 103%
WM1745
  cleaved PARP positive nuclei fraction: 92.2%
WM3526
  cleaved PARP positive nuclei fraction: 43.2%
WM3619
  cleaved PARP positive nuclei fraction: 86.9%
WM451Lu
  cleaved PARP positive nuclei fraction: 97.2%

## COCC[n+]1c2c(n(Cc3cnccn3)c1C)C(=O)c1ccccc1C2=O + O=C(Oc1ccc([N+](=O)[O-])cc1)N1CCC(C(O)(c2ccc3c(c2)OCO3)c2ccc3c(c2)OCO3)CC1 [JZL184] (first compound 0.0004 µM, partner dose 1 µM)
MeWo
  cleaved PARP positive nuclei fraction: 113%
RPMI7951
  cleaved PARP positive nuclei fraction: 212%
RVH-421
  cleaved PARP positive nuclei fraction: 24.8%
SkMel28
  cleaved PARP positive nuclei fraction: 129%
SkMel30
  cleaved PARP positive nuclei fraction: 48.1%
SkMel5
  cleaved PARP positive nuclei fraction: 77%
UACC257
  cleaved PARP positive nuclei fraction: 192%
UACC62
  cleaved PARP positive nuclei fraction: 86.6%
WM115
  cleaved PARP positive nuclei fraction: 178%
WM1716
  cleaved PARP positive nuclei fraction: 114%
WM1745
  cleaved PARP positive nuclei fraction: 106%
WM3526
  cleaved PARP positive nuclei fraction: 76.6%
WM3619
  cleaved PARP positive nuclei fraction: 82.2%
WM451Lu
  cleaved PARP positive nuclei fraction: 155%

## C[C@]12O[C@H](C[C@]1(O)CO)n1c3ccccc3c3c4c(c5c6ccccc6n2c5c31)CNC4=O [Lestaurtinib] + OCCn1cc(-c2cnc3nnn(Cc4ccc5ncccc5c4)c3n2)cn1 [PF04217903] (first compound 0.004 µM, partner dose 1 µM)
MeWo
  cleaved PARP positive nuclei fraction: 72.4%
RPMI7951
  cleaved PARP positive nuclei fraction: 76.9%
RVH-421
  cleaved PARP positive nuclei fraction: 93%
SkMel28
  cleaved PARP positive nuclei fraction: 117%
SkMel30
  cleaved PARP positive nuclei fraction: 74.5%
SkMel5
  cleaved PARP positive nuclei fraction: 63.8%
UACC257
  cleaved PARP positive nuclei fraction: 85.6%
UACC62
  cleaved PARP positive nuclei fraction: 78.9%
WM115
  cleaved PARP positive nuclei fraction: 43.3%
WM1716
  cleaved PARP positive nuclei fraction: 68%
WM1745
  cleaved PARP positive nuclei fraction: 103%
WM3526
  cleaved PARP positive nuclei fraction: 180%
WM3619
  cleaved PARP positive nuclei fraction: 94.5%
WM451Lu
  cleaved PARP positive nuclei fraction: 364%

## C[C@@H]1CCN(C(=O)CC#N)C[C@@H]1N(C)c1ncnc2[nH]ccc12 + O=C(Oc1ccc([N+](=O)[O-])cc1)N1CCC(C(O)(c2ccc3c(c2)OCO3)c2ccc3c(c2)OCO3)CC1 [JZL184] (first compound 1 µM, partner dose 1 µM)
MeWo
  cleaved PARP positive nuclei fraction: 99%
RPMI7951
  cleaved PARP positive nuclei fraction: 40.6%
RVH-421
  cleaved PARP positive nuclei fraction: 98.7%
SkMel28
  cleaved PARP positive nuclei fraction: 64.3%
SkMel30
  cleaved PARP positive nuclei fraction: 28.7%
SkMel5
  cleaved PARP positive nuclei fraction: 80.7%
UACC257
  cleaved PARP positive nuclei fraction: 131%
UACC62
  cleaved PARP positive nuclei fraction: 89.7%
WM115
  cleaved PARP positive nuclei fraction: 92.2%
WM1716
  cleaved PARP positive nuclei fraction: 127%
WM1745
  cleaved PARP positive nuclei fraction: 104%
WM3526
  cleaved PARP positive nuclei fraction: 66.4%
WM3619
  cleaved PARP positive nuclei fraction: 66.4%
WM451Lu
  cleaved PARP positive nuclei fraction: 116%

## C[As](C)SC[C@H](NC(=O)CC[C@H](N)C(=O)O)C(=O)NCC(=O)O [Darinaparsin] + COc1ccc(Cl)c(Nc2nc3ccccc3nc2NS(=O)(=O)c2cccc(NC(=O)C(C)(C)N)c2)c1 [XL147] (first compound 0.4 µM, partner dose 0.8 µM)
MeWo
  cleaved PARP positive nuclei fraction: 58%
RPMI7951
  cleaved PARP positive nuclei fraction: 45.6%
RVH-421
  cleaved PARP positive nuclei fraction: 166%
SkMel28
  cleaved PARP positive nuclei fraction: 75.1%
SkMel30
  cleaved PARP positive nuclei fraction: 16.7%
UACC62
  cleaved PARP positive nuclei fraction: 92%
WM115
  cleaved PARP positive nuclei fraction: 58.3%
WM1716
  cleaved PARP positive nuclei fraction: 146%
WM1745
  cleaved PARP positive nuclei fraction: 102%
WM3526
  cleaved PARP positive nuclei fraction: 94.5%
WM3619
  cleaved PARP positive nuclei fraction: 98.9%
WM451Lu
  cleaved PARP positive nuclei fraction: 197%

## Cc1cc(SCc2sc(-c3ccc(C(F)(F)F)c(F)c3)nc2C)ccc1OCC(=O)O + O=c1cc(-c2cccc3c2Sc2ccccc2S3)oc(N2CCOCC2)c1 [KU55933] (first compound 2 µM, partner dose 1 µM)
MeWo
  cleaved PARP positive nuclei fraction: 51.3%
RPMI7951
  cleaved PARP positive nuclei fraction: 73.9%
RVH-421
  cleaved PARP positive nuclei fraction: 82.4%
SkMel28
  cleaved PARP positive nuclei fraction: 40.4%
SkMel30
  cleaved PARP positive nuclei fraction: 309%
SkMel5
  cleaved PARP positive nuclei fraction: 115%
UACC257
  cleaved PARP positive nuclei fraction: 31%
UACC62
  cleaved PARP positive nuclei fraction: 101%
WM115
  cleaved PARP positive nuclei fraction: 93.8%
WM1716
  cleaved PARP positive nuclei fraction: 61.5%
WM1745
  cleaved PARP positive nuclei fraction: 111%
WM3526
  cleaved PARP positive nuclei fraction: 78.8%
WM3619
  cleaved PARP positive nuclei fraction: 92.8%
WM451Lu
  cleaved PARP positive nuclei fraction: 205%

## Cn1cc(C2=C(c3cn(C4CCN(Cc5ccccn5)CC4)c4ccccc34)C(=O)NC2=O)c2ccccc21 [Enzastaurin] + C[C@@H](Oc1cc(-c2cnn(C3CCNCC3)c2)cnc1N)c1c(Cl)ccc(F)c1Cl [Crizotinib] (first compound 0.8 µM, partner dose 0.2 µM)
MeWo
  cleaved PARP positive nuclei fraction: 94.2%
RPMI7951
  cleaved PARP positive nuclei fraction: 109%
RVH-421
  cleaved PARP positive nuclei fraction: 132%
SkMel28
  cleaved PARP positive nuclei fraction: 41.4%
SkMel30
  cleaved PARP positive nuclei fraction: 41.6%
UACC62
  cleaved PARP positive nuclei fraction: 56.7%
WM115
  cleaved PARP positive nuclei fraction: 50.6%
WM1716
  cleaved PARP positive nuclei fraction: 178%
WM1745
  cleaved PARP positive nuclei fraction: 91%
WM3526
  cleaved PARP positive nuclei fraction: 671%
WM3619
  cleaved PARP positive nuclei fraction: 171%
WM451Lu
  cleaved PARP positive nuclei fraction: 177%

## Cc1cc(SCc2sc(-c3ccc(C(F)(F)F)c(F)c3)nc2C)ccc1OCC(=O)O + COc1cc2ncnc(Nc3ccc(Oc4ccccc4)cc3)c2cc1OC [SrcI1] (first compound 2 µM, partner dose 2 µM)
MeWo
  cleaved PARP positive nuclei fraction: 233%
RPMI7951
  cleaved PARP positive nuclei fraction: 242%
RVH-421
  cleaved PARP positive nuclei fraction: 81.6%
SkMel28
  cleaved PARP positive nuclei fraction: 77.5%
SkMel30
  cleaved PARP positive nuclei fraction: 40.4%
SkMel5
  cleaved PARP positive nuclei fraction: 55.3%
UACC257
  cleaved PARP positive nuclei fraction: 115%
UACC62
  cleaved PARP positive nuclei fraction: 162%
WM115
  cleaved PARP positive nuclei fraction: 46.3%
WM1716
  cleaved PARP positive nuclei fraction: 40%
WM1745
  cleaved PARP positive nuclei fraction: 116%
WM3526
  cleaved PARP positive nuclei fraction: 49.4%
WM3619
  cleaved PARP positive nuclei fraction: 89.6%
WM451Lu
  cleaved PARP positive nuclei fraction: 56%

## Cn1cc(C2=C(c3cn(C4CCN(Cc5ccccn5)CC4)c4ccccc34)C(=O)NC2=O)c2ccccc21 [Enzastaurin] + Cc1cc([N+](=O)[O-])ccc1NS(=O)(=O)c1cc(Cl)ccc1Cl [FH535] (first compound 0.8 µM, partner dose 1 µM)
MeWo
  cleaved PARP positive nuclei fraction: 81.6%
RPMI7951
  cleaved PARP positive nuclei fraction: 211%
RVH-421
  cleaved PARP positive nuclei fraction: 100%
SkMel28
  cleaved PARP positive nuclei fraction: 108%
SkMel30
  cleaved PARP positive nuclei fraction: 40.9%
SkMel5
  cleaved PARP positive nuclei fraction: 192%
UACC257
  cleaved PARP positive nuclei fraction: 146%
UACC62
  cleaved PARP positive nuclei fraction: 97.5%
WM115
  cleaved PARP positive nuclei fraction: 65.4%
WM1716
  cleaved PARP positive nuclei fraction: 149%
WM1745
  cleaved PARP positive nuclei fraction: 92.2%
WM3526
  cleaved PARP positive nuclei fraction: 78.8%
WM3619
  cleaved PARP positive nuclei fraction: 108%
WM451Lu
  cleaved PARP positive nuclei fraction: 22.1%

## CC(=O)O[C@@]12CO[C@@H]1C[C@H](O)[C@@]1(C)C(=O)[C@H](O)C3=C(C)[C@@H](OC(=O)[C@H](O)[C@@H](NC(=O)OC(C)(C)C)c4ccccc4)C[C@@](O)([C@@H](OC(=O)c4ccccc4)[C@H]21)C3(C)C [Docetaxel] + C[As](C)SC[C@H](NC(=O)CC[C@H](N)C(=O)O)C(=O)NCC(=O)O [Darinaparsin] (first compound 0.0001 µM, partner dose 0.4 µM)
MeWo
  cleaved PARP positive nuclei fraction: 875%
RPMI7951
  cleaved PARP positive nuclei fraction: 234%
RVH-421
  cleaved PARP positive nuclei fraction: 460%
SkMel28
  cleaved PARP positive nuclei fraction: 194%
SkMel30
  cleaved PARP positive nuclei fraction: 629%
UACC62
  cleaved PARP positive nuclei fraction: 375%
WM115
  cleaved PARP positive nuclei fraction: 298%
WM1716
  cleaved PARP positive nuclei fraction: 253%
WM1745
  cleaved PARP positive nuclei fraction: 181%
WM3526
  cleaved PARP positive nuclei fraction: 62.7%
WM3619
  cleaved PARP positive nuclei fraction: 157%
WM451Lu
  cleaved PARP positive nuclei fraction: 110%
